# According to the supplement of paper PMC3682954:
# Several values for one entry are separate records, joined by “and”; a condition that tells them apart may be missing. Equal values may be shown once. Where a name gives a salt, the structure may show the parent alone. ± gives the standard deviation of the averaged measurements. The list shows a part of the results. Single values are uncertain, as repeats are few or missing.
# Tested on: RAW 264.7
# Assay: HMGB1-induced TNF-alpha production relative to HMGB1-stimulated control; higher = more TNF-alpha secretion (less inhibition)
# Details: stimulus: HMGB1 5 ug/ml, 18 h
# [1] = compound concentration: 1 ug/ml
smiles,measurement,setting,value
COc1ccc(/C=C2\COc3ccc(C)cc3C2=O)cc1O,HMGB1-induced TNF-alpha production,compound concentration: 3 uM,92.6%
"COC1=C(OC)C(=O)c2ccccc2C1=O [2,3-Dimethoxy-1,4-naphthoquinone]",HMGB1-induced TNF-alpha production,compound concentration: 3 uM,116%
CC[C@]1(O)C[C@@H]2CN(CCc3c([nH]c4ccccc34)[C@@](C(=O)OC)(c3cc4c(cc3OC)N(C)[C@H]3[C@@](O)(C(=O)OC)[C@H](OC(C)=O)[C@]5(CC)C=CCN6CC[C@]43[C@@H]65)C2)C1 [Vinblastine sulfate salt],HMGB1-induced TNF-alpha production,compound concentration: 3 uM,128%
CC[C@]1(O)C[C@@H]2CN(CCc3c([nH]c4ccccc34)[C@@](C(=O)OC)(c3cc4c(cc3OC)N(C)[C@H]3[C@@](O)(C(=O)OC)[C@H](OC(C)=O)[C@]5(CC)C=CCN6CC[C@]43[C@@H]65)C2)C1 [Vinblastine],HMGB1-induced TNF-alpha production,compound concentration: 3 uM,91.8%
CC[C@]1(O)C[C@@H]2CN(CCc3c([nH]c4ccccc34)[C@@](C(=O)OC)(c3cc4c(cc3OC)N(C)[C@H]3[C@@](O)(C(=O)OC)[C@H](OC(C)=O)[C@]5(CC)C=CCN6CC[C@]43[C@@H]65)C2)C1,HMGB1-induced TNF-alpha production,compound concentration: 3 uM,202 ± 77%
CC(C)(C)C(O)/C=C/c1ccc2c(c1)OCO2 (stereo unspecified) [Stiripentol],HMGB1-induced TNF-alpha production,compound concentration: 3 uM,97.8%
CCN(CCCc1ccccc1)CCCc1ccccc1,HMGB1-induced TNF-alpha production,compound concentration: 3 uM,80.2%
CCN(CCCc1ccccc1)CCCc1ccccc1 [Alverine citrate salt],HMGB1-induced TNF-alpha production,compound concentration: 3 uM,94.5%
CCCCC(CC)COC(=O)c1ccccc1O (stereo unspecified),HMGB1-induced TNF-alpha production,compound concentration: 3 uM,87.7%
CC(=O)[C@H]1CC[C@H]2[C@@H]3CC=C4C[C@@H](OC(=O)CCC(=O)O)CC[C@]4(C)[C@H]3CC[C@]12C,HMGB1-induced TNF-alpha production,compound concentration: 3 uM,73%
CC(CCc1ccc(O)cc1)NCC(O)c1ccc(O)cc1 (stereo unspecified) [Ractopamine],HMGB1-induced TNF-alpha production,compound concentration: 3 uM,68.4%
O=P(O)(O)C(O)(Cc1cccnc1)P(=O)(O)O,HMGB1-induced TNF-alpha production,compound concentration: 3 uM,81.9%
O=P(O)(O)C(O)(Cc1cccnc1)P(=O)(O)O [Risedronic acid],HMGB1-induced TNF-alpha production,compound concentration: 3 uM,80.8%
N[C@@H](Cc1ccc(F)cc1)C(=O)O [p-Fluoro-L-phenylalanine],HMGB1-induced TNF-alpha production,compound concentration: 3 uM,68.7%
Nc1nccc2c1ncn2[C@@H]1O[C@H](CO)[C@@H](O)[C@H]1O [3-deazaadenosine],HMGB1-induced TNF-alpha production,compound concentration: 3 uM,85.6%
O=C(O)c1cc(O)c(O)c(O)c1,HMGB1-induced TNF-alpha production,compound concentration: 3 uM,85.2%
CCN(CC)C(=O)N1CCN(C)CC1,HMGB1-induced TNF-alpha production,compound concentration: 3 uM,80.8%
CCN(CC)C(=O)N1CCN(C)CC1 [Diethylcarbamazine citrate],HMGB1-induced TNF-alpha production,compound concentration: 3 uM,57%
CCCCC#Cc1nc(NC)c2ncn([C@@H]3O[C@H](CO)[C@@H](O)[C@H]3O)c2n1,HMGB1-induced TNF-alpha production,compound concentration: 3 uM,94%
CC(C)=CCC/C(C)=C/COc1ccc2ccc(=O)oc2c1,HMGB1-induced TNF-alpha production,compound concentration: 3 uM,91.8%
C=CC[N@@+]12CC[C@@]34c5ccccc5N5/C=C6/[C@H]7C[C@H]8[C@@]9(CC[N@@+]8(CC=C)C/C7=C/CO)c7ccccc7N(/C=C(/[C@@H](C[C@@H]31)/C(=C\CO)C2)[C@H]54)[C@@H]69 [Alcuronium chloride],HMGB1-induced TNF-alpha production,compound concentration: 3 uM,116%
COc1cc(CC(=O)O)ccc1O [4-Hydroxy-3-methoxyphenylacetic acid],HMGB1-induced TNF-alpha production,compound concentration: 3 uM,116%
CN1CCC[C@H]1c1cccnc1,HMGB1-induced TNF-alpha production,compound concentration: 3 uM,99.9%
CN1CCC[C@H]1c1cccnc1 [Nicotine],HMGB1-induced TNF-alpha production,[1],76.9%
CN1CCC[C@H]1c1cccnc1 [(-)-Nicotine hydrogen tartrate salt],HMGB1-induced TNF-alpha production,compound concentration: 3 uM,108%
CCC1=C[C@H]2CN(C1)Cc1c([nH]c3ccccc13)[C@@](C(=O)OC)(c1cc3c(cc1OC)N(C)[C@H]1[C@@](O)(C(=O)OC)[C@H](OC(C)=O)[C@]4(CC)C=CCN5CC[C@]31[C@@H]54)C2,HMGB1-induced TNF-alpha production,compound concentration: 3 uM,112%
CCCC(C(=O)OCCN(CC)CC)(c1ccccc1)c1ccccc1,HMGB1-induced TNF-alpha production,compound concentration: 3 uM,90.8%
CCCC(C(=O)OCCN(CC)CC)(c1ccccc1)c1ccccc1 [SKF-525A hydrochloride],HMGB1-induced TNF-alpha production,compound concentration: 3 uM,114%
CCCC(C(=O)OCCN(CC)CC)(c1ccccc1)c1ccccc1 [Proadifen hydrochloride],HMGB1-induced TNF-alpha production,compound concentration: 3 uM,86%
Clc1ccc(COC(Cn2ccnc2)c2ccc(Cl)cc2Cl)cc1 (stereo unspecified) [Econazole nitrate],HMGB1-induced TNF-alpha production,compound concentration: 3 uM,64.1%
Clc1ccc(COC(Cn2ccnc2)c2ccc(Cl)cc2Cl)cc1 (stereo unspecified),HMGB1-induced TNF-alpha production,compound concentration: 3 uM,70.9%
NC(=O)NO [Hydroxyurea],HMGB1-induced TNF-alpha production,compound concentration: 3 uM,68.9%
NC(=O)NO,HMGB1-induced TNF-alpha production,compound concentration: 3 uM,100 ± 8%
Clc1ccccc1C(c1ccccc1)(c1ccccc1)n1ccnc1,HMGB1-induced TNF-alpha production,compound concentration: 3 uM,72.2 ± 18%
Clc1ccccc1C(c1ccccc1)(c1ccccc1)n1ccnc1 [Clotrimazole],HMGB1-induced TNF-alpha production,compound concentration: 3 uM,67.9 ± 12%
CCNc1nc2c(ncn2[C@H]2C[C@H](O)[C@@H](CO)O2)c(=O)[nH]1 [N2-Ethyl-2'-deoxyguanosine],HMGB1-induced TNF-alpha production,compound concentration: 3 uM,91.4%
CO/N=C1\CN(c2nc3c(cc2F)c(=O)c(C(=O)O)cn3C2CC2)CC1CN (stereo unspecified),HMGB1-induced TNF-alpha production,compound concentration: 3 uM,74.7%
COc1cc2ccc(=O)oc2cc1OC1OC(COC2OC(C)C(OC(C)=O)C(OC(C)=O)C2OC(C)=O)C(OC(C)=O)C(OC(C)=O)C1OC(C)=O (stereo unspecified) [Haploperoside C Acetate],HMGB1-induced TNF-alpha production,[1],69.8%
NC(=O)C1(N2CCCCC2)CCN(CCCC(=O)c2ccc(F)cc2)CC1,HMGB1-induced TNF-alpha production,compound concentration: 3 uM,87.6%
CNC1(C)C2CCC(C2)C1(C)C (stereo unspecified) [Mecamylamine],HMGB1-induced TNF-alpha production,compound concentration: 3 uM,113%
CNC1(C)C2CCC(C2)C1(C)C (stereo unspecified),HMGB1-induced TNF-alpha production,compound concentration: 3 uM,92.6%
CNC1(C)C2CCC(C2)C1(C)C (stereo unspecified) [Mecamylamine hydrochloride],HMGB1-induced TNF-alpha production,compound concentration: 3 uM,112 ± 2.1%
CCCCCCCCCCCCCCCC[N+](C)(C)C,HMGB1-induced TNF-alpha production,compound concentration: 3 uM,68.9%
COC1C=COC2(C)Oc3c(C)c(O)c4c(O)c(c(C=O)c(O)c4c3C2=O)NC(=O)C(C)=CC=CC(C)C(O)C(C)C(O)C(C)C(OC(C)=O)C1C (stereo unspecified) [3-formyl Rifamycin SV],HMGB1-induced TNF-alpha production,[1],62.9%
CC(=C(CCO)SSCC1CCCO1)N(C=O)Cc1cnc(C)nc1N (stereo in doubt) [Fursultiamine Hydrochloride],HMGB1-induced TNF-alpha production,compound concentration: 3 uM,98.2%
C[C@@H]1CC2C3C[C@H](F)C4=CC(=O)C=C[C@]4(C)[C@@]3(F)[C@@H](O)C[C@]2(C)[C@@]1(O)C(=O)COC(=O)C(C)(C)C (stereo partly specified),HMGB1-induced TNF-alpha production,compound concentration: 3 uM,37.6%
CCC(C)(CN(C)C)OC(=O)c1ccccc1 (stereo unspecified) [Amyleine hydrochloride],HMGB1-induced TNF-alpha production,compound concentration: 3 uM,57.2%
C=C(NC(=O)C(=C)NC(=O)c1csc(C2=N[C@@H]3c4csc(n4)[C@H]4NC(=O)c5csc(n5)[C@H]([C@](C)(O)[C@@H](C)O)NC(=O)[C@H]5CSC(=N5)/C(=C/C)NC(=O)[C@H]([C@@H](C)O)NC(=O)c5csc(n5)[C@]3(CC2)NC(=O)[C@H](C)NC(=O)C(=C)NC(=O)[C@H](C)NC(=O)[C@H]([C@@H](C)CC)N[C@@H]2C=Cc3c([C@H](C)O)cc(nc3[C@H]2O)C(=O)O[C@@H]4C)n1)C(N)=O [Thiostrepton],HMGB1-induced TNF-alpha production,compound concentration: 3 uM,54.2%
Cn1c(=O)c2c(ncn2CC(O)CO)n(C)c1=O (stereo unspecified) [Diprophylline],HMGB1-induced TNF-alpha production,compound concentration: 3 uM,75.7%
Cn1c(=O)c2c(ncn2CC(O)CO)n(C)c1=O (stereo unspecified),HMGB1-induced TNF-alpha production,compound concentration: 3 uM,104%
CCCc1nc(C(C)(C)O)c(C(=O)OCc2oc(=O)oc2C)n1Cc1ccc(-c2ccccc2-c2nnn[nH]2)cc1,HMGB1-induced TNF-alpha production,compound concentration: 3 uM,105 ± 3.9%
NCCC(=O)N[C@@H](Cc1cnc[nH]1)C(=O)O [L-Carnosine],HMGB1-induced TNF-alpha production,[1],72.6%
NC(=O)c1cccnc1 [Nicotinamide],HMGB1-induced TNF-alpha production,compound concentration: 3 uM,126%
NC(=O)c1cccnc1,HMGB1-induced TNF-alpha production,compound concentration: 3 uM,84.5% and 101%
Nc1nccs1,HMGB1-induced TNF-alpha production,compound concentration: 3 uM,97.8%
CC(C)(Oc1ccc(C2CC2(Cl)Cl)cc1)C(=O)O (stereo unspecified) [Ciprofibrate],HMGB1-induced TNF-alpha production,compound concentration: 3 uM,100 ± 38%
O=C(O)CCC/C=C\C[C@@H]1[C@@H](/C=C/[C@H](O)C2Cc3ccccc3C2)[C@@H](F)C[C@@H]1O,HMGB1-induced TNF-alpha production,compound concentration: 3 uM,101%
CC1=C(C(=O)O)N2C(=O)[C@@H](NC(=O)[C@H](N)c3ccc(O)cc3)[C@H]2SC1 [Cefadroxil],HMGB1-induced TNF-alpha production,compound concentration: 3 uM,79.5%
CC1=C(C(=O)O)N2C(=O)[C@@H](NC(=O)[C@H](N)c3ccc(O)cc3)[C@H]2SC1,HMGB1-induced TNF-alpha production,compound concentration: 3 uM,86%
"CCCc1cc(=O)oc2cc(O)cc(O)c12 [5,7-Dihydroxy-4-propylcoumarin]",HMGB1-induced TNF-alpha production,[1],107%
C=CCN1CCCC1CNC(=O)c1cc2nn[nH]c2cc1OC (stereo unspecified) [Alizapride HCl],HMGB1-induced TNF-alpha production,compound concentration: 3 uM,91.6%
CC(CCc1ccc(O)cc1)NCCc1ccc(O)c(O)c1 (stereo unspecified) [Dobutamine],HMGB1-induced TNF-alpha production,compound concentration: 3 uM,61.4%
CC(CCc1ccc(O)cc1)NCCc1ccc(O)c(O)c1 (stereo unspecified),HMGB1-induced TNF-alpha production,compound concentration: 3 uM,89.8%
CC(CCc1ccc(O)cc1)NCCc1ccc(O)c(O)c1 (stereo unspecified) [Dobutamine hydrochloride],HMGB1-induced TNF-alpha production,compound concentration: 3 uM,55.1 ± 14%
Cc1cn([C@H]2C[C@H](O)[C@@H](CO)O2)c(=O)[nH]c1=O [Thymidine],HMGB1-induced TNF-alpha production,[1],72.9%
N[C@@H](CCC(=O)N[C@@H](CSN=O)C(=O)NCC(=O)O)C(=O)O [S-Nitrosoglutathione],HMGB1-induced TNF-alpha production,compound concentration: 3 uM,109%
CCOc1nc2cccc(C(=O)OC(C)OC(=O)OC3CCCCC3)c2n1Cc1ccc(-c2ccccc2-c2nn[nH]n2)cc1 (stereo unspecified),HMGB1-induced TNF-alpha production,compound concentration: 3 uM,74.9%
O=c1cc(O)cc(/C=C/c2ccc(O)c(O)c2)o1 [Hispidin],HMGB1-induced TNF-alpha production,compound concentration: 3 uM,93.5%
CCN1CCC[C@H]1CNC(=O)c1cc(S(N)(=O)=O)ccc1OC,HMGB1-induced TNF-alpha production,compound concentration: 3 uM,105%
CCN1CCC[C@H]1CNC(=O)c1cc(S(N)(=O)=O)ccc1OC [Sulpiride S (-)],HMGB1-induced TNF-alpha production,compound concentration: 3 uM,98.6%
Nc1ccc(S(N)(=O)=O)cc1 [Sulfanilamide],HMGB1-induced TNF-alpha production,compound concentration: 3 uM,104%
Nc1ccc(S(N)(=O)=O)cc1,HMGB1-induced TNF-alpha production,compound concentration: 3 uM,82.4%
CC1CCN(CCCC(=O)c2ccc(F)cc2)CC1 [Metylperon],HMGB1-induced TNF-alpha production,compound concentration: 3 uM,95.7%
O=c1[nH]c(=O)n([C@H]2C[C@H](O)[C@@H](CO)O2)cc1/C=C/Br [(E)-5-(2-Bromovinyl)-2'-deoxyuridine],HMGB1-induced TNF-alpha production,[1],79.3%
same,HMGB1-induced TNF-alpha production,compound concentration: 3 uM,71%
CC(C)N(CCC(=O)c1ccc2ccccc2c1)Cc1ccccc1,HMGB1-induced TNF-alpha production,compound concentration: 3 uM,60.9%
CCC(C)(C)c1ccc(CC(C)CN2C[C@@H](C)O[C@@H](C)C2)cc1 (stereo partly specified) [Amorolfine],HMGB1-induced TNF-alpha production,compound concentration: 3 uM,84.2%
COc1ccc(CCN(C)CCCC(C#N)(c2ccc(OC)c(OC)c2)C(C)C)cc1OC (racemic) [(±)-Verapamil hydrochloride],HMGB1-induced TNF-alpha production,compound concentration: 3 uM,101%
CC[C@]12CCCN3CCc4c(n(c5ccccc45)[C@@](O)(C(=O)OC)C1)[C@@H]32 [Vincamine],HMGB1-induced TNF-alpha production,[1],61.8%
same,HMGB1-induced TNF-alpha production,compound concentration: 3 uM,68.1%
CC[C@]12CCCN3CCc4c(n(c5ccccc45)[C@@](O)(C(=O)OC)C1)[C@@H]32,HMGB1-induced TNF-alpha production,compound concentration: 3 uM,81.4%
